From article PMC7819943, “Rice protein-binding microarrays: a tool to detect cis-acting elements near promoter regions in rice” come the findings set out here.

Sequences of proteins named here, by UniProt entry; tags and fusion partners are left off.
UniProt Q0JBA9, entry or part of it: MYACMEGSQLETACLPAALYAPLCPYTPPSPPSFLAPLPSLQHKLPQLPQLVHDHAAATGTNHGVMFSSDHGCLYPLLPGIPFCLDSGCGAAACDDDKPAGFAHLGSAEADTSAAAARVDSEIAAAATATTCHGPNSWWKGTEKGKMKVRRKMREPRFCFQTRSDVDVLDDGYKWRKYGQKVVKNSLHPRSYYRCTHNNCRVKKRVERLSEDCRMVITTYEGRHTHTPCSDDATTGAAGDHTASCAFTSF

The other results are listed elsewhere or left out.

The target of the assay is OsWRKY34 (Oryza sativa, UniProt Q0JBA9 1-250). Nature of the assay: protein-binding microarray (RPBM); PBS, 2% BSA, 51.3 ng/ul salmon testes DNA, 50 uM zinc acetate, 200 nM TF, 25 C, 1 h; high values mean tight binding. Particulars: protein: recombinant; tags: N-terminal polyhistidine and DsRed monomer fusion (pET32a); label: CyDye5-dUTP incorporated in the synthesized complementary strand; 3' TTTTT single-stranded linker to array surface; dsDNA, one strand shown. The method, boiled down:
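Ni–NTA purification followed expression in E. coli BL21-CodonPlus of transcription factors fused N-terminally to a polyhistidine tag and DsRed. At 200 nM in PBS with 2% BSA, salmon testes DNA and 50 µM zinc acetate, the protein was incubated for 1 h at 25 °C with a custom Agilent array that had been primer-extended with Cy5-dUTP and blocked with 2% BSA. After washing, the array was read on an Axon 4000B scanner. The binding signal is per-feature fluorescence intensity in arbitrary units.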
Turning to “TGTGTGTGTCTCAGTCCTCGTTTCTCTTCTCCGGCCGCCGCGGAGTCACCTAGTGCAG”, the binding signal was 11500 fluorescence intensity (a.u.).

Turning to “ACTTGTAGCGCTTGGAAAGTTCTGTAGTTGTTTTTTTGCCCGGAGTCACCTAGTGCAG”, the binding signal is 8550 fluorescence intensity (a.u.).

In the case of “TCGCAACTCCACCTTCTTCCCACGCTCTATTGGGTTTAAACGGAGTCACCTAGTGCAG”, the binding signal is 8810 fluorescence intensity (a.u.).

Consider “CCCGAGATCCCACCCACCGCATCCGACTATCCGAGACGAGCGGAGTCACCTAGTGCAG”, for which the binding signal is 9570 fluorescence intensity (a.u.).

For the sequence “ATCCTGGAAGCTTGCTGCTGCTGCCTTTTTTATTAATCTCCGGAGTCACCTAGTGCAG”, the binding signal was 8330 fluorescence intensity (a.u.).

“AGGTGTGATTATTGTTCTGTTTGGCGCCATTATTATCTAACGGAGTCACCTAGTGCAG”: the binding signal was 11200 fluorescence intensity (a.u.).

For the sequence “CAAGCTCGCCGGCCCCGCCCAGATCGGCGGCCTCCGGCGCCGGAGTCACCTAGTGCAG”, the binding signal is 8380 fluorescence intensity (a.u.).

For “AATATCTTTGTGTCTGTCTGTCTCTTGCTGGACTCTGCTTCGGAGTCACCTAGTGCAG”, the binding signal is 11000 fluorescence intensity (a.u.).

Regarding “CGCGGCGCGGCGTGGGTGGGTGTGTGTGGCCGCCTTAAACCGGAGTCACCTAGTGCAG”, the binding signal is 8460 fluorescence intensity (a.u.).

Take “AACTGGTTCATTCGTAAACTAGTCCTATCAGATCTGTTTGCGGAGTCACCTAGTGCAG”: the binding signal is 8180 fluorescence intensity (a.u.).

Consider “ATTCCATAGTAATATTTGTCTTGTCCTACTTCTGATTTCTCGGAGTCACCTAGTGCAG”, for which the binding signal was 12500 fluorescence intensity (a.u.).

As to “CCGGGTGGTTGGGTTTGGTGCTTTCCGATAGGCACGAGCTCGGAGTCACCTAGTGCAG”, the binding signal was 8860 fluorescence intensity (a.u.).

“GTAGTAGTTTGGTAATAGTAGTAGGGGTGCCTTATTTTTTCGGAGTCACCTAGTGCAG”: the binding signal was 9370 fluorescence intensity (a.u.).

On to “GTCAAACATGTGCTAAAAAGTCAACGGCGTCAAACATTTTCGGAGTCACCTAGTGCAG”, for which the binding signal is 13300 fluorescence intensity (a.u.).

As to “CTTCTTCCACTTGAAGCTTTTTCTCTCTTGGTCTTATCCTCGGAGTCACCTAGTGCAG”, the binding signal was 9690 fluorescence intensity (a.u.).

As for “TCGCTTTCCATCCTTCTCATGCTGTCAATTTATCAGTCAACGGAGTCACCTAGTGCAG”, the binding signal is 11300 fluorescence intensity (a.u.).

Turning to “GTCCGCTTCCATTGGGAGCGCGGCTACTGGCTGGGTTTACCGGAGTCACCTAGTGCAG”, the binding signal was 8770 fluorescence intensity (a.u.).

“TAGTCAATTACCACTTCGTCTCTGCATATGTACGTAAAACCGGAGTCACCTAGTGCAG”: the binding signal was 9820 fluorescence intensity (a.u.).

For “ATCGTCCTCTGCACCTGCACACATCATCACTGGGACAACCCGGAGTCACCTAGTGCAG”, the binding signal was 8140 fluorescence intensity (a.u.).

For the sequence “CTCCTACTGCCTACCGCCGACGCAGAACTCCGTGGGTTACCGGAGTCACCTAGTGCAG”, the binding signal was 8210 fluorescence intensity (a.u.).

In the case of “TTGGTAGTATTGCATGTTGGCTTATTTATGAATCGTGTGACGGAGTCACCTAGTGCAG”, the binding signal was 8490 fluorescence intensity (a.u.).

Turning to “GACTTAACTATGCAAACAGCTTATAGAATATTTCCATGGTCGGAGTCACCTAGTGCAG”, the binding signal was 8090 fluorescence intensity (a.u.).

For the sequence “GCTTGTTTGTCAACTTGGCATTAATCACATTAGTTATATTCGGAGTCACCTAGTGCAG”, the binding signal is 9110 fluorescence intensity (a.u.).

On to “AACCACCTCACCGCCGACGACCTCATCCTCGTCGGCGCCGCGGAGTCACCTAGTGCAG”, for which the binding signal was 8990 fluorescence intensity (a.u.).

Regarding “CTGTATTATGGTGCTTTCACATTTTTTTTCTAGTCTGCCACGGAGTCACCTAGTGCAG”, the binding signal is 8370 fluorescence intensity (a.u.).

In the case of “AAAGCTGCGATTTTTTTTTCCTTCTCTCGCCGCCCGCGCGCGGAGTCACCTAGTGCAG”, the binding signal is 8780 fluorescence intensity (a.u.).

Regarding “AGTTACTCTTATTGTTTACTGGTTCATTTTGTTTCTTCTTCGGAGTCACCTAGTGCAG”, the binding signal was 11900 fluorescence intensity (a.u.).

“GGCACCGTATCGCGTTCACAATTTTTCGCGCAGACCTCCACGGAGTCACCTAGTGCAG”: the binding signal was 8600 fluorescence intensity (a.u.).

Take “AATTTTTGTGTGCAGCTGACATGTGGGGCCACGCTTTTTACGGAGTCACCTAGTGCAG”: the binding signal was 11500 fluorescence intensity (a.u.).

For “CACATCCTCATCCCTGTGAACAAACACGTACATATACCCTCGGAGTCACCTAGTGCAG”, the binding signal is 8690 fluorescence intensity (a.u.).

As for “AGAATTGGATCAACCTTGTCACAGATCTGCCGTGTAGTTTCGGAGTCACCTAGTGCAG”, the binding signal is 8410 fluorescence intensity (a.u.).

For the sequence “TTTGCCTTTTTTTTTTCTCTTGCTGTGGAGACCCGACCACCGGAGTCACCTAGTGCAG”, the binding signal was 9170 fluorescence intensity (a.u.).

With “ACAATCTCCATAATTTTGATCTCCTATTAGTATCTCCTTACGGAGTCACCTAGTGCAG”, the binding signal is 8680 fluorescence intensity (a.u.).

In the case of “TGTTGCTGTTGCTGCTGTGAAGAGCCGGGAGGGGTTGACGCGGAGTCACCTAGTGCAG”, the binding signal is 8700 fluorescence intensity (a.u.).

Turning to “CCCTTCACCACCGGTTTCGGTTCGTCGGCACCAAGCCCCTCGGAGTCACCTAGTGCAG”, the binding signal is 8850 fluorescence intensity (a.u.).

On to “GAGTGGAGAGGAAAGAGCAGGAGTTGACCATGAACTAGTCCGGAGTCACCTAGTGCAG”, for which the binding signal is 8520 fluorescence intensity (a.u.).

For “CCGCCGCCGCCGCCGCCGACCTTGTCACTCCGGCCGCTGCCGGAGTCACCTAGTGCAG”, the binding signal is 9390 fluorescence intensity (a.u.).

Consider “TTCTACCCCTCGCCGAGTCGCCGTATAAAACACCCAAACTCGGAGTCACCTAGTGCAG”, for which the binding signal was 8050 fluorescence intensity (a.u.).

In the case of “ATCCCAGCATTCAGCTATAACAGGCTTAATCACCTTTTCTCGGAGTCACCTAGTGCAG”, the binding signal is 8440 fluorescence intensity (a.u.).

Take “GGTTTAGTTCTCAAATTTTTCTTCAAACTTTTAACTTTTCCGGAGTCACCTAGTGCAG”: the binding signal was 8330 fluorescence intensity (a.u.).

As to “TTCCAGCCGATGTACACCCCAGCCAATATCTTCGCAGCCACGGAGTCACCTAGTGCAG”, the binding signal was 9890 fluorescence intensity (a.u.).

For “TTGGGAGGGAGAGTGGTAAAGGGTGCTGGGGCTTTGGCTGCGGAGTCACCTAGTGCAG”, the binding signal is 8840 fluorescence intensity (a.u.).
